In all, about 53,000 sequences went through this assay and about 3,700 (7%) were called active.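 How the source made its calls: active means gene knockdowns whose robust z-score for IL-1 alpha signal is at least 2 or at most -2, so actives lie on both sides; inactive means the rest.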 Some of the results follow.
Assay: Components of the Cytosolic LPS Sensing Pathway: Gene Identification via Genome-wide siRNA Screen;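 further: robust z of the log signal after scaling to non-targeting control siRNA wells of the plate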
Conditions: RAW264.7 macrophages, IL-1a HTRF, actives lie on both sides, screened at 100 nM (by protocol), cells primed 5 h with Pam3CSK4 first
Outline: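 Read-out: IL-1a HTRF on supernatant, divided by plate negative-control median ×100, log-transformed and converted to robust z-score. Cells were RAW264.7 given 100 nM siRNA, Pam3CSK4-primed 5 hours, then LipidA-transfected 24 hour.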

Row | Sequence | z-score
1 | GGAAGAAAGUGAAGAAGAGTT against Cdr1os | inactive: -0.387
2 | GGUGUGUGCCUUUUAUUUUTT against Gins4 | inactive: -0.00195
3 | GGUUGUCUUGACACCCUACTT against Tnfrsf1b | active: -2.21
4 | GGUGUUCCUUUCACGAACATT against Gpr158 | inactive: 0.0128
5 | GGUACACCAGGAAUAGACGTT against Prl7a1 | inactive: 0.236
6 | CGCCAGCAGAACUCAAAUATT against Gm11992 | inactive: 0.623
7 | GGAAGCAGAGCAGCUGUUUTT against Skiv2l | inactive: -0.567
8 | GCAAUUUCCUGUGUUAAUATT against Rab3c | inactive: 0.921
9 | GAAAAAUAAUGGAGUUUGGTT against Gtf2h5 | inactive: 0.513
10 | GGGAUUAUGUGUCAUUUGUTT against Vwa2 | inactive: 1.9
11 | GGUCUGACAUUACUCAAAUTT against Rad51 | inactive: 1.59
12 | CCACAUUCCUCAUUCUGUATT against Vars2 | inactive: -0.622
13 | GACUCUAAACCUAGCAGCGTT against Basp1 | active: -2.34
14 | GGAUGUUUUGAAAUCUCGUTT against Acad11 | inactive: 0.955
15 | GGAUUUGUUUGCUUAGCUGTT against Ctbp1 | inactive: 0.739
16 | GGUGAUGGUGAACAAGAAATT against Lgals9 | inactive: -0.811
17 | GGAUUUUUAUAACCCACUGTT against Cldn9 | inactive: -0.644
18 | GCUGAAGGGUCUCGUAUUGTT against Hes2 | inactive: 0.262
19 | GGAGAAGGUUCGAAGAAGCTT against Lysmd3 | inactive: 0.248
20 | GGCCUGUAUCACUUUUAUCTT against Pcsk2 | inactive: -0.36
21 | GCCGAUAGCAUAGACAGUGTT against Kansl2 | inactive: 0.6
22 | CCCACUGAUGCUAUUUCUATT against Rad1 | active: -2.57

Row | Sequence | z-score
23 | GGACUAAGAUUUGUGUUAGTT against Ccdc127 | active: 2.15
24 | GGCAUUCCAGAGAAAGCGUTT against F3 | inactive: -1.33
25 | GCACCCAUAUCAACGAGGUTT against Olfr924 | inactive: 0.484
26 | GGUACAACAAAUCUUAUCATT against Abca6 | inactive: -0.476
27 | GGUGGAAUUCAUUUUGACATT against Dnajb6 | inactive: -0.42
28 | GGAACCUGAUUGACUUGGATT against Tmem63c | inactive: 0.511
29 | GCUAUAGCGCGGAAAUGGATT against Dclk3 | inactive: -0.531
30 | GGACAAGCUGCAUCUGUUUTT against Rgma | inactive: -1.26
31 | GCACAAGACCUGCAUACUATT against Ttc5 | inactive: -0.76
32 | CCUACACCUUCAGUUUGAUTT against Pramel31 | inactive: 1.64
33 | CGCAGGUUUGAGUACAAGCTT against Lman1l | inactive: -0.237
34 | GGACAAUGGUUCCUUGGAUTT against Cdc25c | inactive: 0.981
35 | CGACUGGUCUUGAUUGUUATT against H2ac6 | inactive: 1.81
36 | GGUAUCGACCACAGAUCAUTT against Plxnd1 | inactive: 1.77
37 | GCCAAGACCAUUCAGCCUUTT against Zfp579 | inactive: -0.394
38 | CGCUCUGUUAAUGCAGGAUTT against Papss1 | active: 3.22
39 | GGAUUAUGGAAAGAACUUUTT against Sort1 | inactive: 0.742
40 | GGUACUAAAUAAAAGACCGTT against Dsc2 | inactive: 1.15
41 | GCUGUGACAGAAGCUUUCGTT against Vars2 | inactive: -0.201
42 | GUGGGAUUCCUGUACAAAUTT against Olfr1118 | inactive: 1.57
43 | CGAUUUAAUGUCAACAUUGTT against Arhgap5 | inactive: -0.0577
44 | GCACGCCUCUUUCAGCUAUTT against Pitx3 | inactive: 1.26

Quoted from the listing.
z-score, CCACAUUCCUCAUUCUGUATT against Vars2 reads inactive: -0.622
z-score, GCCAAGACCAUUCAGCCUUTT against Zfp579 reads inactive: -0.394
z-score, GGUACAACAAAUCUUAUCATT against Abca6 reads inactive: -0.476
z-score, GGUGGAAUUCAUUUUGACATT against Dnajb6 reads inactive: -0.42
z-score, GACUCUAAACCUAGCAGCGTT against Basp1 reads active: -2.34

Next entries:

Row | Sequence | z-score
45 | GGAAGAAGAAGAUAAAGCGTT against Grk6 | inactive: 0.184
46 | GGUGAAGGCCAAUACAUAUTT against Gatm | inactive: -0.69
47 | GCUACACCCUCUGUGAGUUTT against Csrnp2 | active: -2.07
48 | GGAAGUUUUUCCAAGAAGATT against Acadl | inactive: -0.231
49 | UAGUGUCACCUACAGAGAATT against Ercc6l2 | inactive: -0.817
50 | GGUAGCUUAUUGCUAAGGCTT against Pnn | inactive: 0.724
51 | CCAGGAUUGCUGUUCUGAATT against Vac14 | inactive: -0.11
52 | GCUUACAAGGCAUGUAUGATT against Rccd1 | active: 3.46
53 | GGAUUAUGGCUUCAUUAAATT against Glmn | inactive: 0.586
54 | GGACAAUAUCAGAAAGAGUTT against Purg | inactive: 1.13
55 | GGUACUCUGAAAAGAUCGCTT against Gm4952 | inactive: 0.534
56 | GGAAAAAGCAAAUUGAGGATT against Uchl1 | inactive: -1.48
57 | GGAGCAAGACAACAAAGAUTT against Adgre5 | inactive: -0.738
58 | GGAAAUUGCACCUUUAAAGTT against Rnf130 | inactive: 0.335
59 | GGCCAUUAAUUACUACGAGTT against Ttc21a | inactive: 0.368
60 | GGGAGUUAACAAAAACAUATT against Arhgap30 | inactive: -0.0276
61 | GGAAUUUCAUGGCAAGGGUTT against Fmc1 | inactive: 0.652
62 | GGACAUUGCUGUAUUUAUCTT against Nop9 | inactive: 0.417
63 | CCUUGCUGUUCUACUUUGCTT against Olfr1309 | inactive: 1.87
64 | GGUACCUUCAAAGAAUUGUTT against Snx1 | inactive: 0.0897
65 | GGCCAAGCUAUAAGAAAUGTT against Cntnap2 | inactive: 0.201
66 | GCAGGAGUCAAAUUUUCUATT against Nemp1 | inactive: -0.795

Row | Sequence | z-score
67 | UACCUUGGGUUCUAAGGCATT against Atg2a | inactive: 1.6
68 | GGAAAAAAAAAAGCAGUGATT against Phactr4 | inactive: 0.662
69 | CCUGAACCAUGUUGAAUAUTT against Fgfbp3 | inactive: 1.09
70 | GGAGAUCUCCAUCAUCACCTT against Usp50 | inactive: -1.52
71 | GGCUACACUCUGACAGCACTT against Znhit2 | inactive: -0.666
72 | GGACUAUGGUGGGAACUAGTT against Tas2r119 | inactive: -0.564
73 | GGAUAUUUUCAAUGCUGUUTT against Large1 | inactive: -1.13
74 | GGCCAUUGUUGAAAUGUACTT against Myh14 | inactive: 0.175
75 | GGGAAGCUUUACUUUUUAATT against Mapk4 | active: 2.05
76 | GCCCGCAUUCUUAUUCGAUTT against Tmem64 | inactive: -1.13
77 | GGCCUCUACUUCUUUGAGUTT against Cmtm4 | inactive: -0.903
78 | GCCUUCCUUUUUGUCAUUATT against Olfr1387 | inactive: -0.0158
79 | GCCAGUGUUAUCCAGGACUTT against Cggbp1 | inactive: 1.35
80 | CGUGGUAGGUCCCAUUAGATT against Usp13 | inactive: -1.13
81 | GCUACAUGUCAAAGAACCATT against Yars2 | inactive: 0.311
82 | GGCUCAGAUACAUCUGUUATT against Clip4 | inactive: -0.256
83 | GGAAGACCUUCAGAGAGAATT against Ell2 | active: 4.25
84 | GCUCUCAUACUUUGAACCUTT against Pank3 | inactive: 0.232
85 | GGUGGAGUUAACGAGAAACTT against Ccn1 | inactive: 0.69
86 | GUGUGCUGUCGAUGUGUCUTT against 4931422A03Rik | inactive: 0.428
87 | GGAACUCCGAGUAGACGUGTT against Smyd1 | inactive: -1.24
88 | GGCUGUGGUGCUCAAUAAGTT against Clstn2 | inactive: -1.29

Row | Sequence | z-score
89 | GCAACAAUGAGAGACCACATT against Htr5a | active: 3.27
90 | GAUAUAGUCACAGUGUUUUTT against Vmn1r218 | inactive: -0.41
91 | GGCUGACAGGGACCAAUAUTT against Trf | inactive: -0.839
92 | GGAAUCUCCCACUGUUUCCTT against Gpx2 | inactive: -0.46
93 | GCCGAGAUGGUCAUAAGCUTT against Rbbp5 | inactive: 1.99
94 | CCUACGUGAACAUGACGGUTT against Agfg1 | inactive: 0.096
95 | GGAAGACGAAGAGUUUGGATT against Aqp5 | active: 2.37
96 | GGGUGCUGUCAACAUAUGATT against Gabrq | inactive: 0.67
97 | GGAGUAUUAUGAAGUGUUGTT against Aip | inactive: 0.108
98 | GGACGAUUUGGGUCACCUUTT against Rabep1 | inactive: -0.278
99 | GGAAAUCGCAUUUAUUGUUTT against Olfr1090 | inactive: 0.863
100 | GGGUUAUGUGUUGAGCUCCTT against Bub3 | inactive: 0.0843
101 | GGCAUCCCUCUAGAGAACATT against Erbin | inactive: -0.332
102 | GGAGCAAGAAAAGAAAGUGTT against Zfp354c | inactive: 1.15
103 | GGAACGAGAACGAGUCCUUTT against Psd2 | inactive: -0.691
104 | UAUUAAGUGAGGGUAGUAGTT against Olfr1168 | inactive: -1.43
105 | GUAUUCGGUAAUUUGACUUTT against Olfr921 | inactive: 0.315
106 | GGACAAUGUCCUCUCGCUATT against Tgm2 | inactive: -0.683
107 | CGGUUUUGUCAAAGCCCUGTT against Junb | inactive: 0.322
108 | GGGAAGAGAGGAGAAUAUUTT against Stat4 | inactive: -1.98

Given with tabs: part of the list above
Row	Sequence	z-score
104	UAUUAAGUGAGGGUAGUAGTT against Olfr1168	inactive: -1.43
105	GUAUUCGGUAAUUUGACUUTT against Olfr921	inactive: 0.315
106	GGACAAUGUCCUCUCGCUATT against Tgm2	inactive: -0.683

— PubChem BioAssay AID1508600 (Functional Genomics Laboratory (NCATS/FGL), 2020)
